This test has as its target Mcl-1 clones isolated from a mouse embryo cDNA library with Bmf as bait (mouse) (UniProt P97287). As to the kind of experiment: yeast 2-hybrid screen.

By UniProt entry, the sequences of proteins in these tests, tags left out. Where a name states a change or a piece, a line headed by the entry shows the natural chain unless it says otherwise.
UniProt P97287: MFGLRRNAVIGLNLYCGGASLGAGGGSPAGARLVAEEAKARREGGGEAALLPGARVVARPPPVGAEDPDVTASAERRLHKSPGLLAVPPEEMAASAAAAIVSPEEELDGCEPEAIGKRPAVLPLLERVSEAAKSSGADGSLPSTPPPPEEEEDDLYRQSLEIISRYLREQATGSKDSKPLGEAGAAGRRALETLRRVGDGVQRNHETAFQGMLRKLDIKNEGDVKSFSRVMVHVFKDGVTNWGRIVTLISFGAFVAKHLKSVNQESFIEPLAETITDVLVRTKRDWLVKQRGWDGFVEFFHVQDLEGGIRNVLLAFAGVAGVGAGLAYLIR
UniProt Q91ZE9: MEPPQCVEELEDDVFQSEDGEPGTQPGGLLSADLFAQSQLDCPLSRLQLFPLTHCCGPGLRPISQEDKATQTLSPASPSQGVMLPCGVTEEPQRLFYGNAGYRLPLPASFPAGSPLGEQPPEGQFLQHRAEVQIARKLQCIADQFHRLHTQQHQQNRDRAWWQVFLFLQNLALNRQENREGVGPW

Results are given in words; binding and its absence hold for the method and conditions named. Some binding calls cover weakened binding; strength is not graded here.

In the case of “Bmf (Bcl-2 modifying factor), mouse, wild-type, as used in the yeast 2-hybrid system (from UniProt Q91ZE9 1-185)”, the binding entry is recorded as “binds”.

The values above are taken from patent US20050064593A1.
